PubChem BioAssay AID504808, Drosophila RNAi Screening Center | 2011
Assay: 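Fly genes required to hold E2F transcription in check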 (primary screen). Cell system: Drosophila S2 cells. Knock-down reagent: long dsRNA against Drosophila genes. Measured: 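Firefly luciferase driven by E2F sites, normalised to Renilla luciferase on the same minimal promoter, measured by plate reader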. Scale: E2F firefly: higher = more E2F reporter activity; Renilla normaliser: higher = more normaliser reporter signal. Rule for the call: 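a knock-down counted as active when the firefly/Renilla E2F signal rose above 50%, a threshold chosen arbitrarily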.
The deposit covers about 21,000 reagents; shown is a random part of those with a known target gene and a result. In the full data, 18 (0.084%) were called active. 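Raw counts without plate normalisation, one of two replicates; the ratio scores behind the calls were not deposited.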 Not given: the amount of reagent, the time to read-out.

orion [DRSC18213]: E2F firefly, rep 1 = 1.22e5; Renilla normaliser, rep 1 = 5425; call = inactive
orion [DRSC18214]: E2F firefly, rep 1 = 1.09e5; Renilla normaliser, rep 1 = 4903; call = inactive
Plekhm1 [DRSC04527]: E2F firefly, rep 1 = 1.13e5; Renilla normaliser, rep 1 = 4504; call = inactive
CG3611 [DRSC04395]: E2F firefly, rep 1 = 1.16e5; Renilla normaliser, rep 1 = 4152; call = inactive
conu [DRSC07810]: E2F firefly, rep 1 = 1.21e5; Renilla normaliser, rep 1 = 3741; call = inactive
Stam [DRSC03444]: E2F firefly, rep 1 = 83900; Renilla normaliser, rep 1 = 3569; call = inactive

Sorted by “Renilla normaliser, rep 1” (ascending): some entries from above
Plekhm1 [DRSC04527]: E2F firefly, rep 1 = 1.13e5; Renilla normaliser, rep 1 = 4504; call = inactive
orion [DRSC18214]: E2F firefly, rep 1 = 1.09e5; Renilla normaliser, rep 1 = 4903; call = inactive

Continued.
PH4alphaMP [DRSC17031]: E2F firefly, rep 1 = 1.31e5; Renilla normaliser, rep 1 = 6509; call = inactive
CG14855 [DRSC14979]: E2F firefly, rep 1 = 1.07e5; Renilla normaliser, rep 1 = 5317; call = inactive
sno [DRSC20378]: E2F firefly, rep 1 = 8702; Renilla normaliser, rep 1 = 784; call = inactive
Smyd4-4 [DRSC05956]: E2F firefly, rep 1 = 169; Renilla normaliser, rep 1 = 37; call = inactive
Hsc70-1 [DRSC11185]: E2F firefly, rep 1 = 75153; Renilla normaliser, rep 1 = 5209; call = inactive
trol [DRSC17714]: E2F firefly, rep 1 = 79337; Renilla normaliser, rep 1 = 2276; call = inactive
trol [DRSC17718]: E2F firefly, rep 1 = 85114; Renilla normaliser, rep 1 = 2404; call = inactive
trol [DRSC18613]: E2F firefly, rep 1 = 1.24e5; Renilla normaliser, rep 1 = 6479; call = inactive
trol [DRSC18814]: E2F firefly, rep 1 = 1.16e5; Renilla normaliser, rep 1 = 5694; call = inactive
